Out of some 53,000 sequences screened, about 3,700 (7%) were called active.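 How the source made its calls: active means gene knockdowns whose robust z-score for IL-1 alpha signal is at least 2 or at most -2, so actives lie on both sides; inactive means the rest.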 Some of the results follow.
test: Components of the Cytosolic LPS Sensing Pathway: Gene Identification via Genome-wide siRNA Screen; settings: RAW264.7 macrophages, IL-1a HTRF, actives lie on both sides, screened at 100 nM (by protocol), cells primed 5 h with Pam3CSK4 first;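 further: robust z of the log signal after scaling to non-targeting control siRNA wells of the plate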
Summary of the method: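 Three distinct siRNAs per gene were tested singly at 100 nM in RAW264.7 macrophages. Following Pam3CSK4 priming and 24 hour LipidA transfection, IL-1a secretion was read by HTRF.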

z-score, inactive:
GGAACUUCUGAACAUCAGCTT against Prss28 -0.493
GGUUCUCAUGUUGUUGGCUTT against 1600014C10Rik -1.99
GGGUAGCUACGAAGAGGAATT against Ros1 1.72
GUUAAAGACUAACCUGUUATT against Smco1 -1.22
GGACUUUAGAGUUCGCCAUTT against Plekhg6 -0.341
GCAGAGAAGGCAAUAAACUTT against Glrx3 0.129
GGAGUGAAGACUUUGAGAATT against Kcnn2 -0.631
GGUGAAGUCCAGUAAUAAGTT against Nfrkb -1.98
GGGACUCCUCAAUGCUUAUTT against Nxf3 -1.33
CGAGAGUAGCUUGUUGCUGTT against Rhobtb3 0.359
GGUUCAGAGAACCUCUCACTT against Slc26a10 0.479
GCACAACAUUAAAUGCAGATT against Hspa4 0.237
GGACAGAUACUUUUGAUGATT against Zfp386 1.12
GCAAAUUUGCCAAGUCAAATT against Rpap2 0.0345
GGAAUUUAUGGAUAGAGGATT against Zfp768 -0.178
GGCUUUCACCUUAAUUGAUTT against Fntb -0.296
GGAUGCAUGUCAUGUUUACTT against Xpnpep3 1.3
GGAUGCAUCUAGCUUCACATT against BC016548 0.406
GGACUUUUAUUAUUUCCCGTT against Mpped1 0.245
GGGAAAUCAAGGAACUUAATT against Lrrfip1 0.357
GGCAAUGAGAUCAGUCCACTT against Gzmc 0.431
GGUCUUUCAAUAAAGAGAATT against Supt5 -1.75
GCAUAGCCACAAGGUUAAUTT against Nat8f4 0.35
CGGGUCGUCUCCUUACACATT against Prdm8 -0.381
GGAAUUGAAUGGAAAGUGUTT against Ggta1 0.178
GGGUGACUACAAAUACCUGTT against Susd6 -1.18
GGAUCAGAAGAAGUUUAUUTT against Parn 1.52
GCCAUUUGUUUAUGGAGGCTT against Spint2 -1.46
GGAACUUGACAAAGUCUACTT against Panx1 1.2
GGUUUCAGACUCCAUGAGATT against Gyg 0.402
GGUCAUUUGAUCUUCUGGUTT against Cacybp -0.256
GGGCGACCUUUGAUUGACATT against Etv5 -0.0312
GCUGAUCGUGCAGAUUUUATT against Chn2 0.236
GGAAAUAAACAAGUCCCACTT against Urm1 0.465
GCUAAUACGAUCACUAGCUTT against Gdf6 0.511
GGUUCUACGAGUAAAAAGCTT against Xrcc6 -0.774
CGUGAUCGAUGGGAAGAAUTT against Tppp 1.52
GGGUGUUCCUUAUACAGUUTT against Zfp524 0.447
GCAUGGUUUACAAGGAAUGTT against Atxn1 1.2
GCAAUGGUUGAAGAAAUUUTT against Tnip3 0.69
GCUGAAUUCUCCAACCAACTT against Rgcc -0.0341
GCAGGGACUAACUUUCACCTT against Wrap73 -0.459
GGAAUUUUCUCAUGAUCUUTT against Krtap3-3 0.813
GCCCUAGGUGUAAUGAUAGTT against Amd1 0.574
GGCUCAGUGUGCCAAACUGTT against Krt84 -1.19
GGCUUCCAAGCCUAAAGCUTT against H1f3 -0.266
GUUCCUGCUGAUCAAGGACTT against Nsmce3 0.2
CCGAUGUGCUCACUAUCACTT against Mrps35 -0.0351
CCUAUCCUACUGUCAAGAUTT against Nfkb2 0.689
GCCGUUUACCUUAGUCUGUTT against Cyb5rl 0.00283
CGCUAAGCUUAUUGAGUCUTT against Sh3bp5l -0.673
GGUUGAGAAACCAAUUUCATT against Retnlb 0.46
GGCAUUCUCUAUGAAGCUGTT against Vrk3 -1.98
CGACUUGUCAUGAACCAAATT against Atrx -0.597
GGCAAAUGUAGACAUGUAUTT against Defb44-ps -0.0483
GGUAAAGACGUAAACUUACTT against Rhpn2 0.729
GGAUGAGAACAACUCUGCUTT against Lrtm2 0.439
GGAUGUUGAUCUGACUCACTT against Ppp1r7 -0.0181
AUAUAUGCUUACCUUGCUATT against Ubl5 0.738
GCUGUUAACUUGGAAGACUTT against Fut11 -0.0284
CGAGAUCAGGCUACGUCGATT against Fam171a2 -1.51
CCUGAUCACCAGAUGCUGATT against Sprr1a 1.73
GGAGAAGAAAGUGUUGAAATT against Klhdc4 1.79
GGCAGCCAAGAAAAUGUUATT against Gstt2 -0.836
GCCAUUAAUAAUCAGUACUTT against Sh2b1 0.357

6 records drawn at random from the list so far, as already listed:
z-score, inactive:
GGUUCUACGAGUAAAAAGCTT against Xrcc6 -0.774
GGCUCAGUGUGCCAAACUGTT against Krt84 -1.19
GCCAUUUGUUUAUGGAGGCTT against Spint2 -1.46
GCUGUUAACUUGGAAGACUTT against Fut11 -0.0284
GCCCUAGGUGUAAUGAUAGTT against Amd1 0.574
GGGUGUUCCUUAUACAGUUTT against Zfp524 0.447

Next part.

z-score, active:
GGUCUAUGAGAUGUUUUCUTT against Cyp2a4 2.78
GCUUUACUCCAGAUGGAUCTT against Chaf1b 3.23
GGUUUCUGCCCAGAGUCUATT against 2010106E10Rik -2.78
